Data as given in PubChem BioAssay AID743121 (NCATS, 2013)

Assay: 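Partners whose loss is lethal together with topoisomerase I blockade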 (primary screen)
Cell system: MDA-MB-231 cells, a human breast cancer line
Reagent: single siRNA against human genes, 20 nM siRNA (0.8 pmol per well)
Time to read-out: 120 h (drug added 48 h after transfection, read 72 h later)
Conditions: camptothecin 20 nM (about EC30) for 72 h; vehicle 0.1% DMSO in parallel plates
Detection: 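CellTiter-Glo ATP signal, scaled to control siRNA as percent viability; sensitisation given as log2 of untreated divided by camptothecin-treated viability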
Reading the numbers: log2 vehicle/camptothecin viability: higher = stronger sensitisation to camptothecin; viability with camptothecin and viability without drug: higher = more viable cells
Active means: 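Each gene scored by redundant siRNA activity (RSA) over its individual siRNA ratios; a gene is called active at p < 0.001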
Here is one part, drawn at random, of about 26,000 reagents. 167 of all reagents (0.63%) count as active. 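Calls are per gene from RSA p-values that are not deposited; an individual active-marked siRNA can sensitise only weakly.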 Unmarked entries are inactive. Reagents against one gene are numbered here. No sequences are given here.

target gene | reagent | log2 vehicle/camptothecin viability | viability with camptothecin (% of control) | viability without drug (% of control)
PTPRU (GeneID 10076) | 1 | -0.407 | 72.3 | 54.5
PTPRU (GeneID 10076) | 2 | -0.309 | 111 | 89.4
PTPRU (GeneID 10076) | 3 | -0.437 | 64.9 | 47.9
PTPRU (GeneID 10076) | 4 | -0.206 | 91.8 | 79.6
BCAP29 (GeneID 55973) | 1 | -0.314 | 26.8 | 21.5
BCAP29 (GeneID 55973) | 2 | -0.0104 | 95.5 | 94.8
BCAP29 (GeneID 55973) | 3 | 0.167 | 69.6 | 78.1
PEPD (GeneID 5184) | 1 | 0.219 | 42.6 | 49.6
PEPD (GeneID 5184) | 2 | -0.155 | 55.1 | 49.5
PEPD (GeneID 5184) | 3 | -0.293 | 86.3 | 70.5
PEPD (GeneID 5184) | 4 | -0.187 | 85.5 | 75.1
LONRF3 (GeneID 79836) | 1 | -0.0831 | 90.3 | 85.2
LONRF3 (GeneID 79836) | 2 | -0.272 | 86.3 | 71.5
LONRF3 (GeneID 79836) | 3 | -0.193 | 110 | 95.8
LONRF3 (GeneID 79836) | 4 | 0.0726 | 84.6 | 89
SIPA1 (GeneID 6494) | 1 | -0.453 | 37.9 | 27.7
SIPA1 (GeneID 6494) | 2 | -0.2 | 66.6 | 58
SIPA1 (GeneID 6494) | 3 | 0.34 | 73.9 | 93.5
SIPA1 (GeneID 6494) | 4 | 0.025 | 71 | 72.2
SERPINF2 (GeneID 5345) | 1 | -0.0494 | 72 | 69.6
SERPINF2 (GeneID 5345) | 2 | -0.592 | 58.2 | 38.6
SERPINF2 (GeneID 5345) | 3 | -0.25 | 67.1 | 56.4
CDK2 (GeneID 1017) | 1 | -0.387 | 89.5 | 68.4
CDK2 (GeneID 1017) | 2 | -0.113 | 88.5 | 81.8
CDK2 (GeneID 1017) | 3 | -0.142 | 57.4 | 52
CDK2 (GeneID 1017) | 4 | -0.239 | 107 | 90.8
SYK (GeneID 6850) | 1 | -0.0409 | 108 | 105
SYK (GeneID 6850) | 2 | 0.0297 | 110 | 112
SYK (GeneID 6850) | 3 | -0.00157 | 86 | 85.9
SYK (GeneID 6850) | 4 | -0.144 | 64.1 | 58
ERCC5 (GeneID 2073) | 1 | 0.0231 | 94.9 | 96.4
ERCC5 (GeneID 2073) | 2 | -0.422 | 54.6 | 40.7
ERCC5 (GeneID 2073) | 3 | -0.00646 | 101 | 101
ERCC5 (GeneID 2073) | 4 | -0.0587 | 88.8 | 85.3
NAPSA (GeneID 9476) | 1 | -0.153 | 82.5 | 74.1
NAPSA (GeneID 9476) | 2 | -0.302 | 50.3 | 40.8
NAPSA (GeneID 9476) | 3 | -0.468 | 34.2 | 24.7
NAPSA (GeneID 9476) | 4 | -0.259 | 54 | 45.1
ROBO1 (GeneID 6091) | 1 | -0.171 | 102 | 90.8
ROBO1 (GeneID 6091) | 2 | -0.474 | 93.2 | 67.1
ROBO1 (GeneID 6091) | 3 | -0.121 | 85.5 | 78.6
ROBO1 (GeneID 6091) | 4 | 0.258 | 60.5 | 72.4
ANK3 (GeneID 288) | 1 | -0.139 | 71.3 | 64.7
ANK3 (GeneID 288) | 2 | -0.125 | 108 | 99
ANK3 (GeneID 288) | 3 | 0.0279 | 105 | 107
ANK3 (GeneID 288) | 4 | -0.336 | 98.1 | 77.7
KRT1 (GeneID 3848) | 1 | -0.244 | 75.6 | 63.8
KRT1 (GeneID 3848) | 2 | -0.718 | 77.6 | 47.2
KRT1 (GeneID 3848) | 3 | -0.24 | 106 | 90.1
KRT1 (GeneID 3848) | 4 | -0.0958 | 74.6 | 69.8
CXCL11 (GeneID 6373) | 1 | -0.142 | 74.1 | 67.2
CXCL11 (GeneID 6373) | 2 | -0.164 | 56.1 | 50.1
CXCL11 (GeneID 6373) | 3 | -0.145 | 104 | 93.9
CXCL11 (GeneID 6373) | 4 | -0.336 | 110 | 87
CYP8B1 (GeneID 1582) | 1 | -0.0755 | 60.1 | 57
CYP8B1 (GeneID 1582) | 2 | -0.0051 | 78 | 77.7
CYP8B1 (GeneID 1582) | 3 | 0.0691 | 97.5 | 102
PER2 (GeneID 8864) | 1 | -0.166 | 88.7 | 79
PER2 (GeneID 8864) | 2 | 0.0865 | 91 | 96.6
PER2 (GeneID 8864) | 3 | -0.35 | 64.3 | 50.4
PER2 (GeneID 8864) | 4 | -0.338 | 95 | 75.2
GBA1 (GeneID 2629) | 1 | 0.497 | 63.2 | 89.2
GBA1 (GeneID 2629) | 2 | -0.0547 | 93.8 | 90.3
GBA1 (GeneID 2629) | 3 | -0.961 | 79.4 | 40.8
GBA1 (GeneID 2629) | 4 | 0.573 | 36.8 | 54.8
THBD (GeneID 7056) | 1 | -0.426 | 127 | 94.2
THBD (GeneID 7056) | 2 | -0.264 | 90.3 | 75.2
THBD (GeneID 7056) | 3 | -0.0111 | 55.8 | 55.4
THBD (GeneID 7056) | 4 | -0.227 | 17.9 | 15.3
WNK2 (GeneID 65268) | 1 | 0.538 | 72.1 | 105
WNK2 (GeneID 65268) | 2 | -0.254 | 82.9 | 69.5
WNK2 (GeneID 65268) | 3 | -0.0697 | 117 | 111
WNK2 (GeneID 65268) | 4 | -0.262 | 80.5 | 67.2
EPS8L2 (GeneID 64787) | 1 | -0.214 | 63.4 | 54.7
EPS8L2 (GeneID 64787) | 2 | -0.335 | 88.8 | 70.4
EPS8L2 (GeneID 64787) | 3 | 0.351 | 50.9 | 64.9
EPS8L2 (GeneID 64787) | 4 | -0.337 | 85.7 | 67.9
NPY2R (GeneID 4887) | 1 | -0.636 | 89 | 57.2
NPY2R (GeneID 4887) | 2 | -0.222 | 87.8 | 75.2
NPY2R (GeneID 4887) | 3 | -0.131 | 111 | 101
NPY2R (GeneID 4887) | 4 | -0.342 | 79.9 | 63.1
CLCN3 (GeneID 1182) | 1 | -0.407 | 66.6 | 50.3
CLCN3 (GeneID 1182) | 2 | -0.077 | 108 | 102
CLCN3 (GeneID 1182) | 3 | -0.126 | 83.6 | 76.6
CLCN3 (GeneID 1182) | 4 | -0.389 | 115 | 87.8
NPR2 (GeneID 4882) | 1 | -0.128 | 66.7 | 61.1
NPR2 (GeneID 4882) | 2 | -0.31 | 70.7 | 57
NPR2 (GeneID 4882) | 3 | 0.944 | 15.3 | 29.4
NPR2 (GeneID 4882) | 4 | -0.262 | 104 | 87.1

Reformatted: entries from further up
CXCL11 (GeneID 6373) #1
- log2 vehicle/camptothecin viability: -0.142
- viability with camptothecin (% of control): 74.1
- viability without drug (% of control): 67.2

CXCL11 (GeneID 6373) #2
- log2 vehicle/camptothecin viability: -0.164
- viability with camptothecin (% of control): 56.1
- viability without drug (% of control): 50.1

CXCL11 (GeneID 6373) #3
- log2 vehicle/camptothecin viability: -0.145
- viability with camptothecin (% of control): 104
- viability without drug (% of control): 93.9

CXCL11 (GeneID 6373) #4
- log2 vehicle/camptothecin viability: -0.336
- viability with camptothecin (% of control): 110
- viability without drug (% of control): 87
